# Results taken from the supplement of paper PMC8728848.
# The list shows a part of the results.
# Experiments:
# Test in all cases: glycan array binding signal (z-score within array); higher = stronger binding
# Details in all cases: glycan notation: IUPAC condensed, linker removed
# Gal(b1-3)GlcNAc = target: Gal(b1-3)GlcNAc
# Method in brief: (§1)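 The binding signal is a Z-score computed within each array. Data were drawn from 3228 arrays in the Consortium for Functional Glycomics database, restricted to those with a known protein sequence. Scores were averaged over arrays of the same protein sequence at different concentrations or buffers, and over linkers, and negative values can be taken as non-binding.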
# [1] = target: Gal(b1-3)GlcNAc(a1-3)Gal(b1-4)GlcNAc
# Method in brief: as §1
# [2] = target: Gal(b1-3)GlcNAc(a1-6)Gal(b1-4)GlcNAc
# Method in brief: as §1
# [3] = target: Gal(b1-3)GlcNAc(b1-2)Man(a1-3)[Gal(b1-3)GlcNAc(b1-2)Man(a1-6)]Man(b1-4)GlcNAc(b1-4)GlcNAc
# Method in brief: as §1
# [4] = target: Gal(b1-3)GlcNAc(b1-2)Man(a1-3)[Gal(b1-3)GlcNAc(b1-2)Man(a1-6)]Man(b1-4)GlcNAc(b1-4)[Fuc(a1-6)]GlcNAc
# Method in brief: as §1
# [5] = target: Gal(b1-3)GlcNAc(b1-2)Man(a1-3)[GlcNAc(b1-4)][Gal(b1-3)GlcNAc(b1-2)Man(a1-6)]Man(b1-4)GlcNAc(b1-4)GlcNAc
# Method in brief: as §1
# [6] = target: Gal(b1-3)GlcNAc(b1-2)[Gal(b1-3)GlcNAc(b1-6)]Man(a1-6)[Gal(b1-3)GlcNAc(b1-2)Man(a1-3)]Man(b1-4)GlcNAc(b1-4)GlcNAc
# Method in brief: as §1
# [7] = target: Gal(b1-3)GlcNAc(b1-3)Gal(b1-3)GlcNAc
# Method in brief: as §1
# [8] = target: Gal(b1-3)GlcNAc(b1-3)Gal(b1-4)Glc
# Method in brief: as §1
# [9] = target: Gal(b1-3)GlcNAc(b1-3)Gal(b1-4)GlcNAc
# Method in brief: as §1
# [10] = target: Gal(b1-3)GlcNAc(b1-3)Gal(b1-4)GlcNAc(b1-6)[Gal(b1-3)GlcNAc(b1-3)]Gal(b1-4)Glc
# Method in brief: as §1
# [11] = target: Gal(b1-3)GlcNAc(b1-3)Gal(b1-4)[Fuc(a1-3)]GlcNAc(b1-6)[Gal(b1-3)GlcNAc(b1-3)]Gal(b1-4)Glc
# Method in brief: as §1
# [12] = target: Gal(b1-3)GlcNAc(b1-3)GalNAc
# Method in brief: as §1
# [13] = target: Gal(b1-3)GlcNAc(b1-6)Gal(b1-4)GlcNAc
# Method in brief: as §1
# [14] = target: Gal(b1-3)GlcNAc(b1-6)GalNAc
# Method in brief: as §1
# Gal(b1-3)GlcNAc6S = target: Gal(b1-3)GlcNAc6S
# Method in brief: as §1
# [15] = target: Gal(b1-3)[Fuc(a1-4)]GlcNAc
# Method in brief: as §1
# [16] = target: Gal(b1-3)[Fuc(a1-4)]GlcNAc(b1-2)Man(a1-3)[Gal(b1-3)[Fuc(a1-4)]GlcNAc(b1-2)Man(a1-6)]Man(b1-4)GlcNAc(b1-4)[Fuc(a1-6)]GlcNAc
# Method in brief: as §1
# [17] = target: Gal(b1-3)[Fuc(a1-4)]GlcNAc(b1-3)Gal(b1-3)[Fuc(a1-4)]GlcNAc
# Method in brief: as §1
# [18] = target: Gal(b1-3)[Fuc(a1-4)]GlcNAc(b1-3)Gal(b1-4)GlcNAc
# Method in brief: as §1
# [19] = target: Gal(b1-3)[Fuc(a1-4)]GlcNAc(b1-3)Gal(b1-4)[Fuc(a1-3)]GlcNAc
# Method in brief: as §1
# [20] = target: Gal(b1-3)[Fuc(a1-4)]GlcNAc(b1-6)GalNAc
# Method in brief: as §1
# [21] = target: Gal(b1-3)[GlcNAc(b1-6)]GalNAc
# Method in brief: as §1
# [22] = target: Gal(b1-3)[Neu5Ac(a2-6)]GalNAc
# Method in brief: as §1
# [23] = target: Gal(b1-3)[Neu5Ac(a2-6)]GlcNAc(b1-6)Gal(b1-4)Glc
# Method in brief: as §1
# [24] = target: Gal(b1-3)[Neu5Ac(b2-6)]GalNAc
# Method in brief: as §1
# Gal(b1-4)Gal = target: Gal(b1-4)Gal
# Method in brief: as §1
# [25] = target: Gal(b1-4)GalNAc(a1-3)[Fuc(a1-2)]Gal(b1-4)GlcNAc
# Method in brief: as §1
# [26] = target: Gal(b1-4)GalNAc(b1-3)[Fuc(a1-2)]Gal(b1-4)GlcNAc
# Method in brief: as §1
# Gal(b1-4)Glc = target: Gal(b1-4)Glc
# Method in brief: as §1
# Gal(b1-4)Glc6S = target: Gal(b1-4)Glc6S
# Method in brief: as §1
# Gal(b1-4)GlcNAc = target: Gal(b1-4)GlcNAc
# Method in brief: as §1
# [27] = target: Gal(b1-4)GlcNAc(a1-6)Gal(b1-4)GlcNAc
# Method in brief: as §1
# Gal(b1-4)GlcNAc(b1-2)Man = target: Gal(b1-4)GlcNAc(b1-2)Man
# Method in brief: as §1
# [28] = target: Gal(b1-4)GlcNAc(b1-2)Man(a1-3)Man(b1-4)GlcNAc(b1-4)GlcNAc
# Method in brief: as §1
# [29] = target: Gal(b1-4)GlcNAc(b1-2)Man(a1-3)[Gal(b1-4)GlcNAc(b1-2)Man(a1-6)]Man(b1-4)GlcNAc(b1-4)GlcNAc
# Method in brief: as §1
# [30] = target: Gal(b1-4)GlcNAc(b1-2)Man(a1-3)[Gal(b1-4)GlcNAc(b1-2)Man(a1-6)]Man(b1-4)GlcNAc(b1-4)[Fuc(a1-6)]GlcNAc
# Method in brief: as §1
# [31] = target: Gal(b1-4)GlcNAc(b1-2)Man(a1-3)[Gal(b1-4)GlcNAc(b1-2)][GlcNAc(b1-4)]Man(b1-4)GlcNAc(b1-4)GlcNAc
# Method in brief: as §1
# [32] = target: Gal(b1-4)GlcNAc(b1-2)Man(a1-3)[GlcNAc(b1-2)Man(a1-6)]Man(b1-4)GlcNAc(b1-4)GlcNAc
# Method in brief: as §1
# [33] = target: Gal(b1-4)GlcNAc(b1-2)Man(a1-3)[Man(a1-6)]Man(b1-4)GlcNAc(b1-4)GlcNAc
# Method in brief: as §1
# [34] = target: Gal(b1-4)GlcNAc(b1-2)Man(a1-6)Man(b1-4)GlcNAc(b1-4)GlcNAc
# Method in brief: as §1
# [35] = target: Gal(b1-4)GlcNAc(b1-2)Man(a1-6)[GlcNAc(b1-2)Man(a1-3)]Man(b1-4)GlcNAc(b1-4)GlcNAc
# Method in brief: as §1
# [36] = target: Gal(b1-4)GlcNAc(b1-2)Man(a1-6)[Man(a1-3)]Man(b1-4)GlcNAc(b1-4)GlcNAc
# Method in brief: as §1
# [37] = target: Gal(b1-4)GlcNAc(b1-2)[Gal(b1-4)GlcNAc(b1-4)]Man(a1-3)[Gal(b1-4)GlcNAc(b1-2)Man(a1-6)]Man(b1-4)GlcNAc(b1-4)GlcNAc
# Method in brief: as §1
# [38] = target: Gal(b1-4)GlcNAc(b1-2)[Gal(b1-4)GlcNAc(b1-4)]Man(a1-3)[Gal(b1-4)GlcNAc(b1-2)[Gal(b1-4)GlcNAc(b1-6)]Man(a1-6)]Man(b1-4)GlcNAc(b1-4)GlcNAc
# Method in brief: as §1
binder,measurement,setting,value
"Latrophilin-3 (Homo sapiens), Q9HAR2 (protein) MWPSQLLIFMMLLAPIIHAFSRAPIPMAVVRRELSCESYPIELRCPGTDVIMIESANYGRTDDKICDSDPAQMENIRCYLPDAYKIMSQRCNNRTQCAVVAGPDVFPDPCPGTYKYLEVQYECVPYKVEQKVFLCPGLLKGVYQSEHLFESDHQSGAWCKDPLQASDKIYYMPWTPYRTDTLTEYSSKDDFIAGRPTTTYKLPHRVDGTGFVVYDGALFFNKERTRNIVKFDLRTRIKSGEAIIANANYHDTSPYRWGGKSDIDLAVDENGLWVIYATEQNNGKIVISQLNPYTLRIEGTWDTAYDKRSASNAFMICGILYVVKSVYEDDDNEATGNKIDYIYNTDQSKDSLVDVPFPNSYQYIAAVDYNPRDNLLYVWNNYHVVKYSLDFGPLDSRSGQAHHGQVSYISPPIHLDSELERPSVKDISTTGPLGMGSTTTSTTLRTTTLSPGRSTTPSVSGRRNRSTSTPSPAVEVLDDMTTHLPSASSQIPALEESCEAVEAREIMWFKTRQGQIAKQPCPAGTIGVSTYLCLAPDGIWDPQGPDLSNCSSPWVNHITQKLKSGETAANIARELAEQTRNHLNAGDITYSVRAMDQLVGLLDVQLRNLTPGGKDSAARSLNKAMVETVNNLLQPQALNAWRDLTTSDQLRAATMLLHTVEESAFVLADNLLKTDIVRENTDNIKLEVARLSTEGNLEDLKFPENMGHGSTIQLSANTLKQNGRNGEIRVAFVLYNNLGPYLSTENASMKLGTEALSTNHSVIVNSPVITAAINKEFSNKVYLADPVVFTVKHIKQSEENFNPNCSFWSYSKRTMTGYWSTQGCRLLTTNKTHTTCSCNHLTNFAVLMAHVEVKHSDAVHDLLLDVITWVGILLSLVCLLICIFTFCFFRGLQSDRNTIHKNLCISLFVAELLFLIGINRTDQPIACAVFAALLHFFFLAAFTWMFLEGVQLYIMLVEVFESEHSRRKYFYLVGYGMPALIVAVSAAVDYRSYGTDKVCWLRLDTYFIWSFIGPATLIIMLNVIFLGIALYKMFHHTAILKPESGCLDNIKSWVIGAIALLCLLGLTWAFGLMYINESTVIMAYLFTIFNSLQGMFIFIFHCVLQKKVRKEYGKCLRTHCCSGKSTESSIGSGKTSGSRTPGRYSTGSQSRIRRMWNDTVRKQSESSFITGDINSSASLNREGLLNNARDTSVMDTLPLNGNHGNSYSIASGEYLSNCVQIIDRGYNHNETALEKKILKELTSNYIPSYLNNHERSSEQNRNLMNKLVNNLGSGREDDAIVLDDATSFNHEESLGLELIHEESDAPLLPPRVYSTENHQPHHYTRRRIPQDHSESFFPLLTNEHTEDLQSPHRDSLYTSMPTLAGVAATESVTTSTQTEPPPAKCGDAEDVYYKSMPNLGSRNHVHQLHTYYQLGRGSSDGFIVPPNKDGTPPEGSSKGPAHLVTSL",glycan array binding signal (z-score),Gal(b1-3)GlcNAc,-1.67
same,glycan array binding signal (z-score),[1],-0.57
same,glycan array binding signal (z-score),[2],-0.347
same,glycan array binding signal (z-score),[3],1.77
same,glycan array binding signal (z-score),[4],0.213
same,glycan array binding signal (z-score),[5],-0.166
same,glycan array binding signal (z-score),[6],1.4
same,glycan array binding signal (z-score),[7],-0.191
same,glycan array binding signal (z-score),[8],1.37
same,glycan array binding signal (z-score),[9],0.051
same,glycan array binding signal (z-score),[10],-2.05
same,glycan array binding signal (z-score),[11],0.43
same,glycan array binding signal (z-score),[12],-0.127
same,glycan array binding signal (z-score),[13],-0.605
same,glycan array binding signal (z-score),[14],0.017
same,glycan array binding signal (z-score),Gal(b1-3)GlcNAc6S,0.751
same,glycan array binding signal (z-score),[15],-0.275
same,glycan array binding signal (z-score),[16],-0.727
same,glycan array binding signal (z-score),[17],-0.618
same,glycan array binding signal (z-score),[18],-0.804
same,glycan array binding signal (z-score),[19],0.189
same,glycan array binding signal (z-score),[20],1.62
same,glycan array binding signal (z-score),[21],-0.67
same,glycan array binding signal (z-score),[22],0.244
same,glycan array binding signal (z-score),[23],-1.59
same,glycan array binding signal (z-score),[24],-0.594
same,glycan array binding signal (z-score),Gal(b1-4)Gal,0.444
same,glycan array binding signal (z-score),[25],-0.765
same,glycan array binding signal (z-score),[26],0.394
same,glycan array binding signal (z-score),Gal(b1-4)Glc,0.53
same,glycan array binding signal (z-score),Gal(b1-4)Glc6S,0.079
same,glycan array binding signal (z-score),Gal(b1-4)GlcNAc,-0.454
same,glycan array binding signal (z-score),[27],-0.137
same,glycan array binding signal (z-score),Gal(b1-4)GlcNAc(b1-2)Man,-1.06
same,glycan array binding signal (z-score),[28],-0.338
same,glycan array binding signal (z-score),[29],-0.559
same,glycan array binding signal (z-score),[30],-0.465
same,glycan array binding signal (z-score),[31],-0.341
same,glycan array binding signal (z-score),[32],0.359
same,glycan array binding signal (z-score),[33],2.01
same,glycan array binding signal (z-score),[34],3.58
same,glycan array binding signal (z-score),[35],-0.638
same,glycan array binding signal (z-score),[36],0.365
same,glycan array binding signal (z-score),[37],0.234
same,glycan array binding signal (z-score),[38],-1.6
